PubChem BioAssay AID602196 | INSERM – 2012
In all, the deposit lists about 23,000 reagents; below is a part drawn at random. 455 of all reagents (2%) were called active. 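Active includes both protection and sensitisation; some change values fall well beyond the stated -50 to +50 range.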 Entries without a mark were called inactive. Reagents against one gene are numbered here. Not all columns of the deposit are shown. The record does not give: the amount of reagent.

Aim: 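Genes whose knock-down alters cisplatin killing of lung cancer cells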
Cell system: human A549 lung cancer cells
Knock-down reagent: siRNA pair against human genes
Duration: 48 h transfection before cisplatin; time from cisplatin to read-out not stated
Challenge: cisplatin at a dose killing half of control-siRNA cells; exact dose and duration not given
Detection: 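Shift in cisplatin death relative to control siRNA, from -50 (all cells die) to +50 (no cells die); siRNAs harmful on their own scored 0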
Scale: two-siRNA summed score (-2 to +2): higher = both siRNAs protect from cisplatin killing; -2 means both sensitise; mean protection from cisplatin (shift in death): higher = protection from cisplatin killing
Call rule: 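siRNAs harmful alone (LDH or WST-1) get 0; others get +1 for less and -1 for more cisplatin killing; genes are active when the two siRNAs give the same sign, summing to ±2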
Calls: active = both siRNAs shift cisplatin killing the same way; inactive = no consistent shift, or siRNA harmful alone

| gene | reagent no. | two-siRNA summed score (-2 to +2) | mean protection from cisplatin (shift in death) (%) |
| --- | --- | --- | --- |
| LOC153134 | 1 | 0 | 4.3 |
| NUP54 | 1 | 0 | -15 |
| DHDH | 1 | 1 | 15.5 |
| LOC440886 | 1 | 0 | 11.3 |
| CAPN11 | 1 | 0 | 3.4 |
| GOT1L1 | 1 | 0 | 1.3 |
| NDUFS1 | 1 | 0 | 4.1 |
| COQ7 | 1 | 1 | 15.6 |
| OR1F1 | 1 | -1 | -2.1 |
| MAP3K7CL | 1 | 1 | 1.3 |
| FOXL2 | 1 | -1 | -6.6 |
| NBN | 1 | 0 | 12.7 |
| ACVR1B | 1 | 1 | 7.1 |
| ABCG5 | 1 | 1 | 5.3 |
| OLIG1 | 1 | 0 | 11.7 |
| PRKACG | 1 | 1 | 10.9 |
| LOC441006 | 1 | 0 | 3.3 |
| SMNDC1 | 1 | 0 | 2.7 |
| IGSF10 | 1 | 1 | 12 |
| LOC401085 | 1 | 0 | 17.7 |
| LRRC37A11P | 1 | 0 | 8.8 |
| NME2P1 | 1 | 0 | -2.3 |
| LOC402480 | 1 | 0 | 16.8 |
| CNTN1 | 1 | 1 | 11.5 |
| THBD | 1 | 0 | -1.4 |
| SAYSD1 | 1 | 1 | 5.5 |
| NME9 | 1 | 0 | 3.6 |
| TDRD10 | 1 | 0 | 1.3 |
| LOC440897 | 1 | 1 | 8.7 |
| LOC387783 | 1 | 1 | 10.5 |
| EID2 | 1 | 0 | 5.7 |
| EXOSC6 | 1 | 0 | -0.9 |
| LOC440093 | 1 | 0 | 9.1 |
| LOC441112 | 1 | 0 | -7.2 |
| GABRA5 | 1 | 1 | 14.9 |
| LOC401305 | 1 | -1 | 0.3 |
| CLEC2D | 1 | 0 | 10.8 |
| JAG2 | 1 | 0 | -1.9 |
| CCZ1P-OR7E38P | 1 | 0 | 7.8 |
| NR2C1 | 1 | 0 | 4 |
| RDM1 | 1 | 0 | -6.6 |
| BAIAP3 | 1 | -1 | -28.6 |
| U2AF2 | 1 | 1 | 5.1 |
| OR5P2 | 1 | -1 | -5 |
| FGF4 | 1 | 0 | -0.6 |
| LOC440034 | 1 | 0 | 8.4 |
| OR5AU1 | 1 | 0 | 3.9 |
| LOC284798 | 1 | 0 | -1.8 |
| FZD2 | 1 | -1 | -1.7 |
| MYOM1 | 1 | 0 | 6.1 |
| DNAJB4 | 1 | 1 | 8.6 |
| POLR3H | 1 | 0 | 8.4 |
| POLR3H | 2 | 0 | 8.4 |
| LRP2 | 1 | 0 | 9.7 |
| LOC390906 | 1 | 1 | 9.9 |
| RDH5 | 1 | -1 | -9.9 |
| TCF7 | 1 | 0 | -12.3 |
| NME3 | 1 | 0 | -3.3 |
| LHX4 | 1 | -1 | -9.5 |
| TRAM1L1 | 1 | 0 | -0.5 |
| TINCR | 1 | -2 (active) | -17.4 |
| RSRC1 | 1 | 0 | 2.3 |
| NR5A1 | 1 | -1 | -12.1 |
| BUB1 | 1 | 0 | 6 |
| CTCFL | 1 | 0 | 1.6 |
| DDX24 | 1 | 0 | 2.4 |
| LMX1B | 1 | 0 | 7.9 |
| COXFA4L3 | 1 | 0 | 6.5 |
| NR2E1 | 1 | -1 | -4.4 |
| SERTAD1 | 1 | 0 | 7.2 |
| LOC401032 | 1 | 1 | 8.5 |
| LOC196120 | 1 | 1 | 11.2 |
| CHRM5 | 1 | 0 | 7.2 |

Targets above whose gene name starts with P or p (3):
| gene | reagent no. | two-siRNA summed score (-2 to +2) | mean protection from cisplatin (shift in death) (%) |
| --- | --- | --- | --- |
| PRKACG | 1 | 1 | 10.9 |
| POLR3H | 1 | 0 | 8.4 |
| POLR3H | 2 | 0 | 8.4 |
